Test results as given in publication PMC10428001 (Cancer research, 2022).

System: Ba/F3 cells HER2 755_757LREdelinsRP
Assay: Ba/F3 cell viability
Format: cell-based
Conditions: Mus musculus, BaF3, 72 h, read-out: IC50 (average ± SD)

Compound `COc1cc2ncnc(Nc3ccc(F)c(Cl)c3)c2cc1OCCCN1CCOCC1` [gefitinib] has an IC50 of 558 ± 155 nM.
